Source: patent publication US20230331852A1
No constants are given. Whether binding was seen depends on the method and setting. Some binding calls cover weakened binding; strength is not graded here.

By UniProt entry, the sequences of proteins in these tests, tags left out. Where a name states a change or a piece, a line headed by the entry shows the natural chain unless it says otherwise.
UniProt Q8NC01: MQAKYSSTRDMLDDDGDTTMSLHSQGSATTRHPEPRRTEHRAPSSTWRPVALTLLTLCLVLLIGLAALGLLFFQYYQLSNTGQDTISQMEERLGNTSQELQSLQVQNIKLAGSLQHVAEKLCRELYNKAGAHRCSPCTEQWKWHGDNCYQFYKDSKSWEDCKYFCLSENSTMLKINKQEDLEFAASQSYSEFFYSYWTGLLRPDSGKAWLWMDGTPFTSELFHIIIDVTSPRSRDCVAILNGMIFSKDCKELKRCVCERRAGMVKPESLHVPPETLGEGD

Columns and labels:
[1] = biological target: human CLEC-1A expressed on the cell membrane (human) (UniProt Q8NC01); assay: flow cytometry on human U266 cells
[2] = biological target: recombinant human CLEC-1 protein with His Tag (#1704-CL R&D Systems) (human) (UniProt Q8NC01); assay: BLI (Blitz), CLEC1-His on Ni-NTA biosensor
[3] = biological target: recombinant human CLEC-1 protein with His Tag (#1704-CL R&D Systems) (human) (UniProt Q8NC01); assay: ELISA, immobilised hCLEC1-His

Measured: binding

B1: murine anti-hCLEC1 antibody 14H9-F3 (antibody, V domains shown)
VH: QVQLKESGPGLVAPSQSLSITCTISGFSLTTYGIHWVRQPPGKGLEWLVVIWSDGSTIYNSALKSRLSISKDNSKSQVFLKMNSLQTDDTAIYYCARHGGYYNYFDYWGQGTTLTVSS
VL: DIQMNQSPSSLSASLGDTITITCHASQNINVWLSWYQQKPGNIPKLLIYKASNLHTGVPSRFSGSGSGTTFTLTIDSLQPEDIATYYCQQGQSYWTFGGGTKLEIK
binds: all assays above
